# Measured data: PubChem BioAssay AID1053209 (Peter MacCallum Cancer Centre, 2014)
# Test: 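Follow-up of single siRNAs that strengthen doxorubicin killing in osteosarcoma cells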 (follow-up of hits)
# Cell system: mouse primary osteosarcoma cells
# Reagents: single siRNA against mouse genes, 25 nM (text also states 40 nM)
# Timing: about 120 h (48 h before drug, then 72 h with drug)
# Conditions: doxorubicin 100 nM (about IC30-40), added 48 h after transfection, for 72 h
# Measurement: 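ATP-based luminescent viability, with or without doxorubicin, relative to non-targeting control NT1, mean of two replicates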
# Reading the numbers: viability with doxorubicin, vs NT1: higher = more viable cells under doxorubicin; viability without drug, vs NT1: higher = more viable cells without drug
# Rule for the call: 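Counted as active (class LC dox) if viability falls to 0.7 of NT1 or below under doxorubicin but stays within 0.7 to 1.1 without drug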
# Here is an unselected part of about 1,580 reagents. In the full data, 207 (13%) were called active. 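Rows are single siRNAs; four siRNAs per gene were tested, a gene counting as confirmed only when at least two agree.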 Entries without a mark were called inactive. The numbers tell different reagents against one gene apart. Further read-outs or replicates are left out here. Reagent sequences are not shown.
The first 6 records, to show the layout:
gene,reagent,combined effect class,"viability with doxorubicin, vs NT1","viability without drug, vs NT1"
Rbm17 (GeneID 76938),1,normal viability with and without drug,0.95,0.98
Rbm17 (GeneID 76938),2,normal viability with and without drug,1,0.92
Rbm17 (GeneID 76938),3,normal viability with and without drug,1.03,1
Rbm17 (GeneID 76938),4,normal viability with and without drug,0.84,0.94
Rps26 (GeneID 27370),1,normal viability with and without drug,1.07,1
Rps26 (GeneID 27370),2,low viability with and without drug,0.24,0.46

The listing, from the first entry:
gene,reagent,combined effect class,"viability with doxorubicin, vs NT1","viability without drug, vs NT1"
Rbm17 (GeneID 76938),1,normal viability with and without drug,0.95,0.98
Rbm17 (GeneID 76938),2,normal viability with and without drug,1,0.92
Rbm17 (GeneID 76938),3,normal viability with and without drug,1.03,1
Rbm17 (GeneID 76938),4,normal viability with and without drug,0.84,0.94
Rps26 (GeneID 27370),1,normal viability with and without drug,1.07,1
Rps26 (GeneID 27370),2,low viability with and without drug,0.24,0.46
Rps26 (GeneID 27370),3,low viability with and without drug,0.36,0.48
Rps26 (GeneID 27370),4,normal viability with and without drug,0.97,0.96
Cd2bp2 (GeneID 70233),1,normal viability with and without drug,1.02,0.94
Cd2bp2 (GeneID 70233),2,normal viability with and without drug,0.86,1.02
Cd2bp2 (GeneID 70233),3,normal viability with and without drug,1.08,1
Cd2bp2 (GeneID 70233),4,normal viability with and without drug,1.02,1.02
Bahcc1 (GeneID 268515),1,normal viability with and without drug,1.06,1.06
Bahcc1 (GeneID 268515),2,normal viability with and without drug,0.89,0.97
Bahcc1 (GeneID 268515),3,normal viability with and without drug,1.02,1.02
Bahcc1 (GeneID 268515),4,normal viability with and without drug,1.06,1.04
Tiam2 (GeneID 24001),1,normal viability with and without drug,0.9,0.94
Tiam2 (GeneID 24001),2,normal viability with and without drug,0.95,0.98
Tiam2 (GeneID 24001),3,normal viability with and without drug,0.79,0.93
Tiam2 (GeneID 24001),4,normal viability with and without drug,1.07,0.99
Rassf4 (GeneID 213391),1,normal viability with and without drug,1.02,0.91
Rassf4 (GeneID 213391),2,normal viability with and without drug,0.84,0.98
Rassf4 (GeneID 213391),3,normal viability with and without drug,0.99,0.98
Rassf4 (GeneID 213391),4,high viability only without drug,1.03,1.13
Chmp2a (GeneID 68953),1,normal viability with and without drug,1.06,0.83
Chmp2a (GeneID 68953),2,low viability only with doxorubicin; normal without drug (active),0.53,0.86
Chmp2a (GeneID 68953),3,normal viability with and without drug,0.88,0.99
Chmp2a (GeneID 68953),4,low viability only with doxorubicin; normal without drug (active),0.55,0.96
Mon1a (GeneID 72825),1,normal viability with and without drug,0.84,0.94
Mon1a (GeneID 72825),2,normal viability with and without drug,0.79,1
Mon1a (GeneID 72825),3,normal viability with and without drug,0.92,0.97
Mon1a (GeneID 72825),4,high viability only without drug,1.02,1.16
Pik3cb (GeneID 74769),1,normal viability with and without drug,0.9,0.9
Pik3cb (GeneID 74769),2,high viability only with doxorubicin,1.1,0.98
Pik3cb (GeneID 74769),3,normal viability with and without drug,1.07,1.04
Pik3cb (GeneID 74769),4,normal viability with and without drug,1.02,0.92
Eid3 (GeneID 66341),1,normal viability with and without drug,0.81,0.74
Eid3 (GeneID 66341),2,low viability only with doxorubicin; normal without drug (active),0.7,0.84
Eid3 (GeneID 66341),3,low viability only without drug,0.74,0.68
Eid3 (GeneID 66341),4,high viability only with doxorubicin,1.12,1.04
Eif3f (GeneID 66085),1,low viability only with doxorubicin; normal without drug (active),0.39,0.82
Eif3f (GeneID 66085),2,low viability with and without drug,0.57,0.67
Eif3f (GeneID 66085),3,low viability with and without drug,0.57,0.54
Eif3f (GeneID 66085),4,low viability only with doxorubicin; normal without drug (active),0.39,0.76
Eif3i (GeneID 54709),1,low viability with and without drug,0.45,0.46
Eif3i (GeneID 54709),2,low viability with and without drug,0.29,0.29
Eif3i (GeneID 54709),3,normal viability with and without drug,0.9,0.91
Eif3i (GeneID 54709),4,low viability with and without drug,0.44,0.56
Rbm34 (GeneID 52202),1,normal viability with and without drug,0.96,0.97
Rbm34 (GeneID 52202),2,normal viability with and without drug,0.9,1.06
Rbm34 (GeneID 52202),3,normal viability with and without drug,1.01,1.06
Rbm34 (GeneID 52202),4,high viability with and without drug,1.14,1.12
Ikbke (GeneID 56489),1,normal viability with and without drug,0.84,1.09
Ikbke (GeneID 56489),2,normal viability with and without drug,0.86,0.94
Ikbke (GeneID 56489),3,normal viability with and without drug,0.86,0.98
Ikbke (GeneID 56489),4,normal viability with and without drug,1.09,1.02
Rab40b (GeneID 217371),1,normal viability with and without drug,1.06,1
Rab40b (GeneID 217371),2,normal viability with and without drug,1.06,0.96
Rab40b (GeneID 217371),3,normal viability with and without drug,0.84,0.91
Rab40b (GeneID 217371),4,normal viability with and without drug,0.98,0.98
Tnfrsf13b (GeneID 57916),1,normal viability with and without drug,0.92,1.07
Tnfrsf13b (GeneID 57916),2,normal viability with and without drug,0.91,0.87
Tnfrsf13b (GeneID 57916),3,normal viability with and without drug,0.97,0.98
Tnfrsf13b (GeneID 57916),4,normal viability with and without drug,0.93,1.03
Pcyox1 (GeneID 66881),1,normal viability with and without drug,1.07,0.98
Pcyox1 (GeneID 66881),2,normal viability with and without drug,1,0.97
Pcyox1 (GeneID 66881),3,normal viability with and without drug,0.86,0.87
Pcyox1 (GeneID 66881),4,normal viability with and without drug,0.87,0.94
Rbm39 (GeneID 170791),1,low viability only with doxorubicin; normal without drug (active),0.68,0.96
Rbm39 (GeneID 170791),2,normal viability with and without drug,0.75,0.99
Rbm39 (GeneID 170791),3,normal viability with and without drug,1.04,1.02
Rbm39 (GeneID 170791),4,low viability only with doxorubicin; normal without drug (active),0.38,0.86
Rpl11 (GeneID 67025),1,low viability with and without drug,0.19,0.46
Rpl11 (GeneID 67025),2,normal viability with and without drug,0.92,1.01
Rpl11 (GeneID 67025),3,low viability with and without drug,0.28,0.38
Rpl11 (GeneID 67025),4,normal viability with and without drug,1.06,1.02
